Reference: PubChem BioAssay AID504793 (Drosophila RNAi Screening Center, 2011)
The screen tested about 23,000 reagents; this is an unselected part of those with a known target gene and a result. Over the whole deposit, 62 (0.27%) got an active call. 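Calls come from follow-up tests whose scores are not deposited, so confirmed genes may have low counts here; counts are not normalised per plate.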 Raw values are not corrected between plates. Entries without a mark were called inactive. Reagents against one gene are numbered here. Reagent sequences are not shown.

Aim: 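Genes required for cells to halt at G2/M after double-strand DNA breaks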 (primary screen)
Cells: Drosophila S2R+ cells
Knock-down reagent: long dsRNA against Drosophila genes, about 0.25 µg dsRNA per well
Duration: 4 days of dsRNA, then 4 hours of drug before read-out
Treatment: doxorubicin 0.5 µM for 4 hours to cause double-strand breaks, in cells also given a low, harmless dose of dsRNA against nbs to sensitise the assay
Measured: 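Mitotic index as the number of phospho-histone H3-positive cells in each well following doxorubicin, given as raw counts without normalisation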
Direction: mitotic cells: higher = more cells in mitosis, weaker G2 arrest
Hit rule: 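Genes are called active only when high mitotic counts were reproduced with independent dsRNAs and mitosis was checked for delay without damage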
Meaning of the calls: active = confirmed in follow-up tests; inactive = not confirmed

Silencing of ND-PDSW (NADH dehydrogenase (ubiquinone) PDSW subunit) gave: mitotic cells, replicate 1 = 5.
With knock-down of CG9919, the record shows mitotic cells, replicate 1 = 6.
Against CG10466 the deposit lists mitotic cells, replicate 1 = 6.
Silencing of CG6051 #1 resulted in: mitotic cells, replicate 1 = 3.
With knock-down of CG6051 #2, the record shows mitotic cells, replicate 1 = 2.
mus101 (mutagen-sensitive 101) gave mitotic cells, replicate 1 = 26 (active).
Depletion of CG7120 gave: mitotic cells, replicate 1 = 10.
With knock-down of Drep2 (DNA fragmentation factor-related protein 2) #1, the screen gave mitotic cells, replicate 1 = 12.
Against Drep2 (DNA fragmentation factor-related protein 2) #2 the deposit lists mitotic cells, replicate 1 = 2.
For pyd3 #1 the deposit lists mitotic cells, replicate 1 = 11.
pyd3 #2 scored mitotic cells, replicate 1 = 14.
With knock-down of CG5071 #1, the record shows mitotic cells, replicate 1 = 8.
CG5071 #2 gave mitotic cells, replicate 1 = 10.
Knock-down of CG5071 #3 gave: mitotic cells, replicate 1 = 7.
